Reference: PubChem BioAssay AID1159584 (Peter MacCallum Cancer Centre, 2016)
Here is an unselected part of about 18,000 deposited reagents. Not all columns of the deposit are shown. The record does not give: the amount of reagent, the time to read-out.

Screen: 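Genes whose loss is lethal only together with E-cadherin loss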 (primary screen)
System: human MCF10A breast epithelial cells, parental and CDH1-null
Reagent: siRNA against human genes
Measurement: 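Cell viability by CellTiter-Glo ATP luminescence, each line scaled to the mean of mock wells across plates, then CDH1-null over parental ratio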
Scale: CDH1-null / parental viability ratio: higher = CDH1-null cells survive relatively better than parental

For RHOB, how do the results read?
CDH1-null / parental viability ratio: 0.77

Which result is listed for H1-5?
CDH1-null / parental viability ratio: 1.27

With PPARA, what does the deposit list?
CDH1-null / parental viability ratio: 0.96

What did the screen give for CCL3L1?
CDH1-null / parental viability ratio: 0.88

With ERI2, how do the results read?
CDH1-null / parental viability ratio: 0.86

For UGT2B7, how do the results read?
CDH1-null / parental viability ratio: 0.65

With OR6Q1, what does the deposit list?
CDH1-null / parental viability ratio: 1.24

With ZBTB4, how do the results read?
CDH1-null / parental viability ratio: 1.06

With OR52J3, how do the results read?
CDH1-null / parental viability ratio: 1.04

What is on record for LINC02903?
CDH1-null / parental viability ratio: 1.04

How did the screen score TDRD12?
CDH1-null / parental viability ratio: 0.86

With NAP1L1, what was measured?
CDH1-null / parental viability ratio: 0.97

With LRRTM3, what was measured?
CDH1-null / parental viability ratio: 1.18

Which result is listed for SLC17A8?
CDH1-null / parental viability ratio: 0.89

What is on record for MYOZ1?
CDH1-null / parental viability ratio: 1.11

For TNS3, what was measured?
CDH1-null / parental viability ratio: 1.23

What is on record for GSX2?
CDH1-null / parental viability ratio: 1.27

With SPSB3, what was measured?
CDH1-null / parental viability ratio: 1

With GMPR2, how do the results read?
CDH1-null / parental viability ratio: 0.96

What did the screen give for NAT16?
CDH1-null / parental viability ratio: 1.16

What is on record for STK3?
CDH1-null / parental viability ratio: 0.67

What did the screen give for FAHD2B?
CDH1-null / parental viability ratio: 0.69

What is on record for ADGRF2P?
CDH1-null / parental viability ratio: 0.77

With CISH, what does the deposit list?
CDH1-null / parental viability ratio: 0.97

Part of the list above, set out differently:
{"target": "LINC02903", "CDH1-null / parental viability ratio": 1.04}
{"target": "TDRD12", "CDH1-null / parental viability ratio": 0.86}
{"target": "NAP1L1", "CDH1-null / parental viability ratio": 0.97}
{"target": "LRRTM3", "CDH1-null / parental viability ratio": 1.18}
